Data: paper doi:10.1101/2022.05.12.491658
Like-named read-outs stand apart in the source and are kept apart here. These are yes or no findings as the source states them, for the method shown. Some binding calls cover weakened binding; strength is not graded here. For some of these results: Sequences can lack the tags named with a protein.

Sequences of proteins named here, by UniProt entry; tags and fusion partners are left off.
UniProt Q9S7Q7: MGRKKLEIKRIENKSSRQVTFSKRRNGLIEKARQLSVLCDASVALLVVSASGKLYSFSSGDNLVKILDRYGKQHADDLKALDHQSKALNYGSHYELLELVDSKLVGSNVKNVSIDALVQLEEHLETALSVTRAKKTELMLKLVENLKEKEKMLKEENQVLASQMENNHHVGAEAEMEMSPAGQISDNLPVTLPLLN

Assays:
Assay in all cases: two-hybrid
[1] = molecular target: FLOWERING LOCUS C (FLC) (Arabidopsis thaliana) (UniProt Q9S7Q7)
[2] = molecular target: FLOWERING LOCUS C (FLC) (Arabidopsis thaliana) (UniProt Q9S7Q7); remark: listed apart in the source
[3] = molecular target: SHORT … PHASE (SVP) (Arabidopsis thaliana) (UniProt Q9FVC1)
[4] = molecular target: MADS … FLOWERING 5 (MAF5) (Arabidopsis thaliana) (UniProt Q683D7)
[5] = molecular target: T1, HISTONE … 5 (HDA5) (Arabidopsis thaliana) (UniProt Q8RX28)
T1 sequence: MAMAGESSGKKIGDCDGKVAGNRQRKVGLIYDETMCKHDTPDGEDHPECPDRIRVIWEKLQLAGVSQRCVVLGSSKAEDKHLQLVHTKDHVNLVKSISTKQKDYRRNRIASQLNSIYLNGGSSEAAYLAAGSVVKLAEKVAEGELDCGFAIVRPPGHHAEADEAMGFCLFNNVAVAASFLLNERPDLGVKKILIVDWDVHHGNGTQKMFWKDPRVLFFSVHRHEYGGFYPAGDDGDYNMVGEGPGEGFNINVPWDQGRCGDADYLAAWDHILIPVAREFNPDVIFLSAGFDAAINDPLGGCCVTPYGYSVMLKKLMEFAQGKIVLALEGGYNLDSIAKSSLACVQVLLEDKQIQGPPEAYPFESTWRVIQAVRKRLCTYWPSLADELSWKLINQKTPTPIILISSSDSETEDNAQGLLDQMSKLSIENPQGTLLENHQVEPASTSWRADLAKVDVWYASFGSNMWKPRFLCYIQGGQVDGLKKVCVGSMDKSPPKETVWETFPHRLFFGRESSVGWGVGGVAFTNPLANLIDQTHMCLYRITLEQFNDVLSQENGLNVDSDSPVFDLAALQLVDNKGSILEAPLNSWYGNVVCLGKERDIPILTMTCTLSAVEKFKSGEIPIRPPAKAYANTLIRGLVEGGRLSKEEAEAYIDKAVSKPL

[6] = molecular target: T2, FLOWERING LOCUS D (FLD) (Arabidopsis thaliana) (UniProt Q9CAE3)
T2 sequence: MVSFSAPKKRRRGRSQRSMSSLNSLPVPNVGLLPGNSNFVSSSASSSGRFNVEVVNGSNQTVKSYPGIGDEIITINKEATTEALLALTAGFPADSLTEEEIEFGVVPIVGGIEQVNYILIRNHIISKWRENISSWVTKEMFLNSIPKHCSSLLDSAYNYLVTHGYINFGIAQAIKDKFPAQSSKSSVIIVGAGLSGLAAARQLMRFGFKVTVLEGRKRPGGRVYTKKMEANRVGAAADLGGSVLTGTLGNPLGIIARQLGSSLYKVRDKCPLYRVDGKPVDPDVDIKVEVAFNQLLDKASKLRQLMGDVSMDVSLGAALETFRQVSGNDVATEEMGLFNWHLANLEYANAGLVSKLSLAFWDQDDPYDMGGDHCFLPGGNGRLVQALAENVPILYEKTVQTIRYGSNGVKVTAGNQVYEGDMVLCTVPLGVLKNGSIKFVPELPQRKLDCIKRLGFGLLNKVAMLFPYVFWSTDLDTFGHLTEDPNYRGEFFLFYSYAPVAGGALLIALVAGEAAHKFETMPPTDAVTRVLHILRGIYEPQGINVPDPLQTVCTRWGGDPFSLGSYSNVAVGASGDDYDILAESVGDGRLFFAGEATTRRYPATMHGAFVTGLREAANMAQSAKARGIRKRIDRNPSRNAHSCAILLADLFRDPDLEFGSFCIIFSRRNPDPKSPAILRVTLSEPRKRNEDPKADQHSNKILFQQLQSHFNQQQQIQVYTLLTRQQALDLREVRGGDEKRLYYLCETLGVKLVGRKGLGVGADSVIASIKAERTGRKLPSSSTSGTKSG

[7] = molecular target: T3, LSD1-like 2 (LDL2) (Arabidopsis thaliana) (UniProt Q9LID0)
T3 sequence: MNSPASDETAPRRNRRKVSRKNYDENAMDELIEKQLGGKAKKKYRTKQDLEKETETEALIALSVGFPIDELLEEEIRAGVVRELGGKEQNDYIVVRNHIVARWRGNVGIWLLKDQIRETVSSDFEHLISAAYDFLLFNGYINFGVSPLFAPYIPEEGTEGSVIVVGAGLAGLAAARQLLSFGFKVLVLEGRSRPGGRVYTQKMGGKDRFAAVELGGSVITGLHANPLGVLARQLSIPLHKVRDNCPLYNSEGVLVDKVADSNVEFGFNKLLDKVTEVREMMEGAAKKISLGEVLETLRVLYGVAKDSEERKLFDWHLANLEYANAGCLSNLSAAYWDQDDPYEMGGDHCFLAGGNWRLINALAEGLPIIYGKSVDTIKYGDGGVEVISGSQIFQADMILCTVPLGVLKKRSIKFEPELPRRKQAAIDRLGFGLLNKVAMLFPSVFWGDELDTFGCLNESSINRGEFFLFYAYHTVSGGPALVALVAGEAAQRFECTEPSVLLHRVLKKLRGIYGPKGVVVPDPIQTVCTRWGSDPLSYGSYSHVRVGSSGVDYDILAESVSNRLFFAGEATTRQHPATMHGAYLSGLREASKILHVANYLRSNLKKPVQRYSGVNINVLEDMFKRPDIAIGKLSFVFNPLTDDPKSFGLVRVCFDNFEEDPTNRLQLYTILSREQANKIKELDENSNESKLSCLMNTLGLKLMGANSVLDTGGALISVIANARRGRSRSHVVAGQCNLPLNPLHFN

“SHORT … PHASE (SVP) (from UniProt Q9FVC1 1-240)” was tested, and the binding [1] was “binds”.

B1: MADS … FLOWERING 5 (MAF5) (protein, UniProt Q683D7 1-198)
chain: MGRRRVEIKRIENKSSRQVTFCKRRNGLMEKARQLSILCGSSVALFIVSSTGKLYNSSSGDSMAKIISRFKIQQADDPETLDLEDKTQDYLSHKELLEIVQRKIEEAKGDNVSIESLISMEEQLKSALSVIRARKTELLMELVKNLQDKEKLLKEKNKVLASEVGKLKKILETGDERAVMSPENSSGHSPPETLPLLK
B1 was tested, and the binding [2] was “binds”, the binding [3] was “binds” and the binding [4] was “binds”.

B2: LSD1-like 1 (LDL1) (protein, UniProt Q8VXV7 1-844)
chain: MSTETKETRPETKPEDLGTHTTVDVPGEEPLGELIADDVNEVVSDASATETDFSLSPSQSEQNIEEDGQNSLDDQSPLTELQPLPLPPPLPVEARISESLGEEESSDLVTEQQSQNPNAAEPGPRARKRRRRKRFFTEINANPAFSRNRRTSVGKEVDSEALIAMSVGFPVYSLTEEEIEANVVSIIGGKDQANYIVVRNHIIALWRSNVSNWLTRDHALESIRAEHKTLVDTAYNFLLEHGYINFGLAPVIKEAKLRSFDGVEPPNVVVVGAGLAGLVAARQLLSMGFRVLVLEGRDRPGGRVKTRKMKGGDGVEAMADVGGSVLTGINGNPLGVLARQLGLPLHKVRDICPLYLPNGELADASVDSKIEASFNKLLDRVCKLRQSMIEENKSVDVPLGEALETFRLVYGVAEDQQERMLLDWHLANLEYANATLLGNLSMAYWDQDDPYEMGGDHCFIPGGNEIFVHALAENLPIFYGSTVESIRYGSNGVLVYTGNKEFHCDMALCTVPLGVLKKGSIEFYPELPHKKKEAIQRLGFGLLNKVAMLFPCNFWGEEIDTFGRLTEDPSTRGEFFLFYSYSSVSGGPLLVALVAGDAAERFETLSPTDSVKRVLQILRGIYHPKGIVVPDPVQALCSRWGQDKFSYGSYSYVAVGSSGDDYDILAESVGDGRVFFAGEATNRQYPATMHGAFLSGMREAANILRVARRRASSSALNPNQICIDKEEEVDEEEDRCLDQLFETPDLTFGNFSVLFTPNSDEPESMSLLRVRIQMEKPESGLWLYGLVTRKQAIELGEMDGDELRNEYLREKLGLVPVERKSLSQEGESMISSLKAARLNRQIFD
In the case of B2, the binding [5] is reported as “no binding”, the binding [6] is reported as “no binding” and the binding [7] is reported as “no binding”.
